Test results reported in PMC4873647.
No constants are given. Whether binding was seen depends on the method and setting. Binding seen in cells or lysates may run through a third protein. Some entries that bind do so weakly or less than the wild type.

Amino acid sequences for entries named in this document (tags omitted). A change or cut given only in a name is not applied to a line headed by its entry. Residues count along the entry.
UniProt Q8VI36: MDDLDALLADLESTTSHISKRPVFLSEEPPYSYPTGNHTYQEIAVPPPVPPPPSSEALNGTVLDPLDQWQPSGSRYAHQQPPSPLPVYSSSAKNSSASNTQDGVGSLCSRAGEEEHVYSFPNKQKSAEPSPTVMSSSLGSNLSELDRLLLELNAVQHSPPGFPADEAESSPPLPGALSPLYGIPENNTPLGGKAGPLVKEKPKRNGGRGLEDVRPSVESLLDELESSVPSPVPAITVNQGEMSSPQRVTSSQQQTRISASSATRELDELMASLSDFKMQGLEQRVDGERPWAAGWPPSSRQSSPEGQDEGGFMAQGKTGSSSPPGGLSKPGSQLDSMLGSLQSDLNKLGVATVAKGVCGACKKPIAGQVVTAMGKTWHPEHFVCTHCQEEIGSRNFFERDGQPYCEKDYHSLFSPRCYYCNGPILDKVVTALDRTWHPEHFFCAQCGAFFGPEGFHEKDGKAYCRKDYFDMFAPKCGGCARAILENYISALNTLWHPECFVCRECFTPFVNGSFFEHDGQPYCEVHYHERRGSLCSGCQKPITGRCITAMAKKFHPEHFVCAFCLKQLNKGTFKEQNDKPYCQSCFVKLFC
GST-Pxn-Ct (four LIM domains, aa337-591): residues 337-591 of Q8VI36
UniProt P49023: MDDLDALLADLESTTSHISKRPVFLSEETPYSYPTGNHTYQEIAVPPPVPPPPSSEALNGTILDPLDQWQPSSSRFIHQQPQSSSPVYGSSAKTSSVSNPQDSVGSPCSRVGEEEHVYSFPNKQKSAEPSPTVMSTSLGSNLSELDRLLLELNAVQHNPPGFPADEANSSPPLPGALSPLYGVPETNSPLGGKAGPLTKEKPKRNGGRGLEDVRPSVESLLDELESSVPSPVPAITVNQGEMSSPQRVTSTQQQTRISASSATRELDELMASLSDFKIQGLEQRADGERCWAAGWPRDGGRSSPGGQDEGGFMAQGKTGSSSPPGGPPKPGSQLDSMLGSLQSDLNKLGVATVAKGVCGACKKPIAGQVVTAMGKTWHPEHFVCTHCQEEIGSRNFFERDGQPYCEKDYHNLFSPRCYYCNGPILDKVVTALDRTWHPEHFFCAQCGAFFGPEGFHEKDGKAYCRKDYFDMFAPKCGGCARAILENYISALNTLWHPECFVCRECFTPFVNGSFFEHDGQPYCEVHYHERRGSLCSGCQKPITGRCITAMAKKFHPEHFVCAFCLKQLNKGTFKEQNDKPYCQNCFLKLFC
UniProt P25322: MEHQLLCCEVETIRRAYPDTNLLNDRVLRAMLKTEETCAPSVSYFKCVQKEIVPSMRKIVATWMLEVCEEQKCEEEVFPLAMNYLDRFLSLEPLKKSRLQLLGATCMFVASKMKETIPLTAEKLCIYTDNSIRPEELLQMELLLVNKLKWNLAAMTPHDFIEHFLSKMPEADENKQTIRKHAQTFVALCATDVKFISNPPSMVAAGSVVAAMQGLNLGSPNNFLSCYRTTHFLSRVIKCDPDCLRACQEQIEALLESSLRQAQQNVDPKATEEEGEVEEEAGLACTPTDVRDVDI
UniProt P24385: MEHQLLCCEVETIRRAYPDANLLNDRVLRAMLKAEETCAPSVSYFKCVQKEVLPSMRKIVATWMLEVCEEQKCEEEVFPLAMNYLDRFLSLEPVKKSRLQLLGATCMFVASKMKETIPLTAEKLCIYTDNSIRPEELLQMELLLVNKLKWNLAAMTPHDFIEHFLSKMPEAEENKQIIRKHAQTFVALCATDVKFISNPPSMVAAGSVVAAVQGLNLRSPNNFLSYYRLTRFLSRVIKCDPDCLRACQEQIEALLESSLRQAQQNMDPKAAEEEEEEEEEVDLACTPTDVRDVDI

How the values were obtained:
[1] = molecular target: paxillin (Pxn), endogenous (mouse (endogenous in mouse fibroblasts)) (UniProt Q8VI36); assay: co-IP; IP of endogenous Pxn with a rabbit polyclonal anti-Pxn (H-114) from Ccnd1+/+ immortalized MEFs; lysis buffer 10 mM Tris-HCl pH 7.5, 50 mM NaCl, 1% Triton X-100, 3 mM MgCl2, 300 mM sucrose; Protein A magnetic beads; anti-Flag IgG as mock; western blot for Ccnd1, Cdk4, Pxn
[2] = molecular target: GST-Pxn (full length) (mouse) (UniProt Q8VI36); assay: pull-down; 400 ng of GST or GST-Pxn on Glutathione-Sepharose 4B beads, incubated with in vitro translated Flag-Ccnd1; 20 mM HEPES-KOH pH 7.5, 150 mM KCl, 5 mM MgCl2, 0.5 mM EDTA, 0.1% NP-40, 1 mM DTT, 10% glycerol; 30 min at room temperature; four washes; western blot for Ccnd1 and GST; only the target purified
[3] = molecular target: GST-Pxn-Ct (four LIM domains, aa337-591) (mouse) (UniProt Q8VI36); assay: as above
[4] = molecular target: GFP-tagged human Pxn (in R3327-5′A cells) (human) (UniProt P49023); assay: co-IP; R3327-5′A cells co-transfected with GFP-Pxn or GFP alone and Flag-Ccnd1; IP with anti-GFP monoclonal antibodies; same lysis buffer; blot with anti-GFP and anti-Flag
[5] = molecular target: Cyclin D1 (Ccnd1), endogenous (mouse (endogenous in mouse fibroblasts)) (UniProt P25322); assay: co-IP; IP of endogenous Ccnd1 with a rabbit polyclonal anti-Ccnd1 (#06-137) from wild-type MEFs; same lysis buffer; Protein A magnetic beads; anti-Flag IgG as mock; western blot

Cyclin D1 (Ccnd1), endogenous (from UniProt P25322 1-295)
binding [1]: binds

Flag tagged Ccnd1, in vitro translated (from UniProt P24385 1-295)
binding [2]: binds | binding [3]: binds

Flag-tagged human Ccnd1 (in R3327-5′A cells) (from UniProt P24385 1-295)
binding [4]: binds

paxillin (Pxn), endogenous (from UniProt Q8VI36 1-591)
binding [5]: binds
